The source of these data is patent US8853239B2, “Compounds, pharmaceutical compositions and uses thereof” (Boehringer Ingelheim International GmbH, priority 2011, dated 2014).

This test concerns the target T1, human GPR119 (Homo sapiens, UniProt Q8TDV5).
T1 construct: expression vector for human GPR119 cDNA (Acc. No. NP_848566); expressed in transfected cells
T1 sequence (Q8TDV5 1-335): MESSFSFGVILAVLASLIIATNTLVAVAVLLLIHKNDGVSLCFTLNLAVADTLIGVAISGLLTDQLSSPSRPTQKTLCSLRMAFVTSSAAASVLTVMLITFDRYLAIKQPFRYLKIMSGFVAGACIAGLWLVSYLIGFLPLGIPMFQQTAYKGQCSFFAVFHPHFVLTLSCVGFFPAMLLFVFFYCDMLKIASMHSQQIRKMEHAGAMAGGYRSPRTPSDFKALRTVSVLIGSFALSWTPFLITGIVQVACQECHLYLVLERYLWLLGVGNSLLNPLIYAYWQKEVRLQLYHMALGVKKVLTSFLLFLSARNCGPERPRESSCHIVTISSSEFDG
The test can be described thus: AlphaScreen cAMP assay in MIN6 cells stably transfected with human GPR119. The format is cell-based. The conditions noted are these: Min-6/hGPR119 cells, stimulation of intracellular cAMP, 45 minutes incubation at room temperature. Here is the method:
The compounds of formula I according to the invention modulate the activity of the G-protein-coupled receptor GPR119. The effect of the compounds on the activation of GPR119 and on the stimulation of intracellular cAMP concentration is determined using the AlphaScreen cAMP Assay Kit (Cat. No. #6760625R) made by PerkinElmer.
MIN6 cells [Miyazaki J et al. Endocrinology. 1990 July; 127(1):126-32] are stably transfected with an expression vector for human GPR119 cDNA (Acc. No. NP_848566). Min-6/hGPR119 cells are cultured in DMEM, 10% FBS, 50 μM β-mercaptoethanol, 0.3 mg/mL Geniticin, 2 mM GlutaMAX at 37° C. 5% CO2. For the assay, the cells are seeded in Optiplates (white, 384-well, 160W-barcoded, TC, sterile with lid, Cat. No. #6007688 (Perkin Elmer); 10000 cells/well; 50 μl). The plates covered with lids are then incubated for 24 hours at 37° C./5% CO2. After the medium is aspirated from the wells completely, 10 μl of the test compound are added, the compounds are diluted using stimulating buffer (140 mM NaCl, 3.6 mM KCl, 0.5 mM NaH2PO4, 0.5 mM MgSO4, 1.5 mM CaCl2, 10 mM Hepes, 5 mM NaHCO3; pH 7.4. 0.5 mM IBMX and 0.1% BSA, the final DMSO concentration is 1%). After 45 minutes incubation at room temperature (approx. 20° C.), the cAMP concentrations are determined using the AlphaScreen cAMP Assay Kit (Cat. No. #6760625R from PerkinElmer).
Background: Bead proximity is the source of the signal in Alpha formats.

As to `CS(=O)(=O)c1ccc(-c2cc3c(cn2)OC(C2CCN(CC4(C(F)(F)F)CC4)CC2)C3)cc1` (centres unmarked) [Example 2, 5-(4-Methanesulfonyl-phenyl)-2-{1-[(1-trifluoromethyl-cyclopropyl)methyl]-piperidin-4-yl}-2,3-dihydro-furo[2,3-c]pyridine], a half-maximal effect (EC50) was put at 25 nM.

For the molecule `CS(=O)(=O)c1ccc(-c2cc3c(cn2)O[C@@H](C2CCN(CC4(C(F)(F)F)CC4)CC2)C3)cc1` [Example 17, (R)-5-(4-Methanesulfonyl-phenyl)-2-{1-[(1-trifluoromethyl-cyclopropyl)methyl]-piperidin-4-yl}-2,3-dihydro-furo[2,3-c]pyridine], the response was half-maximal at 25 nM (EC50).
